The record followed here is PMC10470491, “Modulation of the functional interfaces between retroviral intasomes and the human nucleosome” (mBio, 2023).

The experiment relates to PFV intasome/nucleosome complex. As to the kind of experiment: AlphaLISA PFV intasome/nucleosome interaction assay. The experiment is classed as binding, prototype foamy virus (PFV); human mononucleosome. The procedure:
AlphaLISA is a technology particularly suitable for bimolecular inhibitor screening assays using protein-protein interactions with purified recombinant proteins. The AlphaLISA assay development was performed in 96-well 12 area Alphaplate (reference 6052340, PerkinElmer, Waltham, MA, USA) with a final reaction volume of 40 µL. Cross-titration experiments of biotinylated MN (0–50 nM) against DIG-intasome (0–100 nM) were carried out to establish optimal assay concentrations for the binding assay. Ten microliters of each protein were diluted in the binding buffer 50 mM BisTris-propane pH 7, 100 mM NaCl, 0.1% (v/v) Tween-20, 0.1% (w/v) BSA, and 1 mM dithiothreitol. The plate was incubated at RT for 2 h in rotation. Ten microliters of anti-DIG acceptor beads (PerkinElmer, reference AL113) were then added, and after 1 h of incubation at RT with rotation, 10 µL of streptavidin […] (Perkin Elmer, reference 6760002) was mixed to the wells. This established a final concentration of 20 µg/mL for each bead. The plate was then incubated for 1 h at RT in the dark before the AlphaLISA signal was detected using an EnSpire Multimode Plate Reader (PerkinElmer). Negative control with binding buffer or only with one of the complexes was used to control the assay quality. Data were analyzed with GraphPad Prism 5.01 software. To evaluate tolerance for DMSO, the assay was performed as described above with an addition of 0.15–20% (v/v) of DMSO during the binding step. For the competition experiment, increasing concentrations of untagged intasome were titrated out in the 1-nM DIG-intasome/biotinylated nucleosome interaction assay.
For the AlphaLISA screening assay with the NIH OncoSET library, the binding conditions were optimized for use in 384-well plate (Optiplate, reference 6007290, PerkinElmer) with the same concentrations for complexes and beads in a final reaction volume of 20.5 µL (2.5% DMSO final concentration). […] Any compound that causes decreased signal means that it interferes with AlphaLISA readout, and therefore, it is not relevant to this assay.
On the technique in general: In Alpha technology, singlet oxygen from a donor bead excites a nearby acceptor bead.

Broadly, the IC50 is the concentration that inhibits the measured activity by half. A lower IC50 goes with greater potency in that assay.

In the case of `CC/C(=C(\c1ccccc1)c1ccc(OCCN(C)C)cc1)c1ccccc1` [Tamoxifen, tamoxifen], the “decrease in the AS signal” value is, setting by setting: (OncoSET screen, 25 µM drug, 1 nM of each partner) “at least 50%”; (retest at 10 µM, MN) 50–60%. Besides, where the note is “intasome/nucleosome AS assay, increasing drug concentrations, Fig. 3E”, the IC50 turned out to be 37.1 ± 0.07 µM.
